Assay results reported in PubChem BioAssay AID504834 (National Center for Advancing Translational Sciences (NCATS), 2011).
Hit rate of the full screen: of about 320,000 compounds, about 22,000 (6.9%) were called active. This list was built around the results that the source calls inconclusive (neither active nor inactive); the mix of calls is not that of the screen. Calls come from the whole dose curve; as a rule, active = well fitted inhibition curve with a large enough effect; inconclusive = small, poorly fitted or top-dose-only effect, or another doubt; inactive = no such curve, though single readings can be large or run the other way. Potencies of inconclusive entries are doubtful fits and often do not repeat.

Experiment: Primary qHTS for delayed death inhibitors of the malarial parasite plastid, 96 hour incubation
Conditions: P. falciparum luciferase reporter growth; series mostly up to 28.7 µM; activity change, negative = inhibition: at the top concentration
Outline: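 Parasite growth measured via integrated firefly luciferase reporter in P. falciparum. Infected erythrocytes at 2% hematocrit, 0.05% parasitemia final were treated 96 hours at 37 C under 5% CO2, and luminescence was read.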
% is set by controls: 0 for no effect and ±100 for the full control effect; potency is the fitted concentration of half-maximal effect.

SMILES | Potency | activity change, negative = inhibition
COc1cccc(-c2nnn(C/C(N)=N/O)n2)c1 | active: 2.33 µM | 
CCOc1ccccc1C(=O)NC1CCN(Cc2nnnn2C2CCCC2)CC1 | active: 13.1 µM | 
Cc1nn(-c2ccccc2)c(Cl)c1/C=N/O | inconclusive: 0.586 µM [inhibitor, partial curve, poor fit] | 
CCOc1ccc(CCN2CN(C3CCCCC3)CNC2=S)cc1OCC |  | inactive: -28.7%
CN(C(=O)CCc1ccccc1F)C1CCCN(Cc2ccccc2F)C1 (stereo not given) | inconclusive: 11.7 µM [inhibitor, partial curve, poor fit] | 
Cc1ccc(C)c(Cn2nnc3c(=O)[nH]c(C4CCCN(S(=O)(=O)Cc5ccccc5)C4)nc32)c1 (stereo not given) |  | inactive: -29.6%
C/C(=N\NC(=O)c1nn(C)c(C)c1Br)c1cccc(NC(=O)c2ccc(F)cc2)c1 | inconclusive: 18.5 µM [inhibitor, single point] | 
COc1ccc(S(=O)(=O)N(C)C)cc1NC(=O)CSc1nnc(-c2cccnc2)o1 |  | inactive: 1.7%
O=c1c2c(nc3n1CCCCC3)-c1ccccc1CC21CCCCC1 | active: 8.28 µM | 
Cn1c(=O)c(C(=O)NCCc2ccccc2)c(O)c2ccccc21 | inconclusive: 18.5 µM [inhibitor, partial curve, poor fit] | 
CCCOc1ccc(N2C(=O)CC(NCC#N)C2=O)cc1 (stereo not given) | inconclusive: 11.7 µM [inhibitor, single point] | 
O=C(NNC(=O)c1cccnc1SCc1cccc([N+](=O)[O-])c1)c1cccnc1 |  | inactive: 37.6%
CCN(CC)C(=O)c1ccc(NC(=O)c2cccc(F)c2)cc1 |  | inactive: 94.9%
COc1ccc(-n2c(=O)c(CCC(=O)N3CCN(c4ccccc4O)CC3)nc3ccccc32)cc1 | active: 8.28 µM | 
COc1ccc(-c2csc(NC(=O)C3CCN(C(=O)c4ccc(F)cc4)CC3)n2)cc1OC | inconclusive: 0.928 µM [inhibitor, full curve] | 
Cc1ccc(C2(O)C(=O)c3ccccc3C2=O)c(O)c1C | inconclusive: 10.4 µM [inhibitor, single point] | 
O=C1CSC(c2cccnc2)N1c1cccc(Cl)c1 (stereo not given) |  | inactive: 8.77%
CC(C)[C@H](NC(=O)C1CCN(S(=O)(=O)c2ccc(F)cc2)CC1)C(=O)N1CCCCCC1 | inconclusive: 18.5 µM [inhibitor, single point] | 
CCOC(=O)C1(Cc2ccc(OC)cc2)CCN(C(=O)CC2CCC(=O)N2)CC1 (stereo not given) | inconclusive: 10.4 µM [inhibitor, single point] | 
CC(C)c1ccc(NC(=O)C(c2ccccc2)N(C)C(=O)c2cnccn2)cc1 (stereo not given) | inconclusive: 9.28 µM [inhibitor, single point] | 

A draw from above in order of molar mass, low to high:
SMILES | Potency | activity change, negative = inhibition
O=C1CSC(c2cccnc2)N1c1cccc(Cl)c1 (stereo not given) |  | inactive: 8.77%
CN(C(=O)CCc1ccccc1F)C1CCCN(Cc2ccccc2F)C1 (stereo not given) | inconclusive: 11.7 µM [inhibitor, partial curve, poor fit] | 
CC(C)c1ccc(NC(=O)C(c2ccccc2)N(C)C(=O)c2cnccn2)cc1 (stereo not given) | inconclusive: 9.28 µM [inhibitor, single point] | 
O=C(NNC(=O)c1cccnc1SCc1cccc([N+](=O)[O-])c1)c1cccnc1 |  | inactive: 37.6%
COc1ccc(S(=O)(=O)N(C)C)cc1NC(=O)CSc1nnc(-c2cccnc2)o1 |  | inactive: 1.7%
COc1ccc(-c2csc(NC(=O)C3CCN(C(=O)c4ccc(F)cc4)CC3)n2)cc1OC | inconclusive: 0.928 µM [inhibitor, full curve] | 
